Data reported in patent publication US10703779B2 (THE GOVERNING COUNCIL OF THE UNIVERSITY OF TORONTO, priority 2015, dated 2020).
Square brackets hold non-standard residues; d marks the D form. Ends that are not written are not given here. Sar = CNCC(=O)O

Assay: general procedure: Fmoc solid-phase peptide synthesis; 2-chlorotrityl chloride resin; HBTU
Settings: cyclisation step, overall

## P[Sar]LGFA
  cyclisation yield: 42% overall yield
